# Data from PubChem BioAssay AID330 (DTP/NCI, 2004).
# The list does not hold the whole screen: it gathers tests that were run many times, whatever their T/C, doses with no T/C, and many T/C values between a quarter and a half above the control. Further doses and runs are listed elsewhere. T/C gives the treated animals as a percentage of the vehicle group. Some entries give survivors of the animals treated and no T/C: the source files T/C as zero there, which appears to mark a toxic dose or a test without result, not a measured value. Some survivor counts are full or nearly so, which does not show that the dose was tolerated: survival well below the control is almost never listed, so the zero probably covers shortened survival too. Survivors were counted at the toxicity check, usually on the fifth day, unless a day is given; later deaths do not show. Schedules are NCI's codes, taken here to give the interval after Q, in days (D) or hours (H), and the number of doses after X. Some doses were run more than once; the results are listed from low to high. Some structures stand for samples that the source files as different forms (salt, stereo form or complex); doses refer to the form tested. For survival time, the PubChem record calls one and a half times the control and up active, and a quarter to a half above the control has no call in these data; cut-offs in other NCI protocols can differ.
# System: P388 leukemia ip, CD2F1 mice, survival T/C
# Experiment: NCI In Vivo Anticancer Drug Screen. Data for tumor model P388 Leukemia (intraperitoneal) in CD2F1 (CDF1) mice
# Conditions: T/C endpoint: median survival time, higher T/C = longer survival
# [1] = dose: 0.15 mg/kg/injection, schedule: Q01DX009 (ip), vehicle: Klucel (hydroxypropylcellulose) (HPC)
# [2] = dose: 200.0 mg/kg/injection, schedule: Q01DX005 (ip), vehicle: saline with Tween-80
# [3] = dose: 100.0 mg/kg/injection, schedule: Q01DX005 (ip), vehicle: saline
# [4] = dose: 200.0 mg/kg/injection, schedule: Q01DX005 (ip), vehicle: saline
# [5] = dose: 50.0 mg/kg/injection, schedule: Q04DX002 (ip), vehicle: saline
# [6] = dose: 100.0 mg/kg/injection, schedule: Q04DX002 (ip), vehicle: saline
# [7] = dose: 200.0 mg/kg/injection, schedule: Q04DX002 (ip), vehicle: saline
# [8] = dose: 400.0 mg/kg/injection, schedule: Q04DX002 (ip), vehicle: saline
smiles,measurement,setting,value
CCn1c2ccccc2c2cc(N=Nc3ccc(O)c4ccccc34)ccc21,survivor count,"dose: 50.0 mg/kg/injection, schedule: Q01DX009 (ip), vehicle: Klucel (hydroxypropylcellulose) (HPC)",6 of 6
Cc1ccc(S(=O)(=O)N=S(=O)(CCCl)CCCl)cc1,survivor count,"dose: 100.0 mg/kg/injection, schedule: Q04DX003 (ip), vehicle: suspension in saline",0 of 6
same,survivor count,"dose: 200.0 mg/kg/injection, schedule: Q04DX003 (ip), vehicle: suspension in saline",0 of 6
same,survivor count,"dose: 400.0 mg/kg/injection, schedule: Q04DX003 (ip), vehicle: suspension in saline",0 of 6
Cc1c2oc3c(C)c([N+](=O)[O-])cc(C(=O)NC4C(=O)NC(C(C)C)C(=O)N5CCCC5C(=O)N(C)CC(=O)N(C)C(C(C)C)C(=O)OC4C)c3nc-2c(C(=O)NC2C(=O)NC(C(C)C)C(=O)N3CCCC3C(=O)N(C)CC(=O)N(C)C(C(C)C)C(=O)OC2C)c(N)c1=O (stereo not drawn),T/C,"dose: 0.04 mg/kg/injection, schedule: Q01DX009 (ip), vehicle: Klucel (hydroxypropylcellulose) (HPC)",140 % of control
same,T/C,[1],130 % of control
same,survivor count,[1],6 of 6
same,survivor count,"dose: 0.3 mg/kg/injection, schedule: Q01DX009 (ip), vehicle: Klucel (hydroxypropylcellulose) (HPC)",5 of 6
same,survivor count,"dose: 0.6 mg/kg/injection, schedule: Q01DX009 (ip), vehicle: Klucel (hydroxypropylcellulose) (HPC)",1 of 6
Cc1cc(N(C)C)c2ccc(N(C)C)cc2n1,survivor count,"dose: 100.0 mg/kg/injection, schedule: Q01DX005 (ip), vehicle: saline with Tween-80",0 of 6
same,survivor count,[2],0 of 6
COC(=O)c1nc(N)nc(C(=O)OC)c1C(=O)c1c(C)[nH]c2ccccc12,survivor count,"dose: 240.0 mg/kg/injection, schedule: Q01DX005 (ip), vehicle: saline with Tween-80",1 of 6
CC1(C)COC(=O)/C1=C\C#N,survivor count,"dose: 400.0 mg/kg/injection, schedule: Q04DX003 (ip), vehicle: Klucel (hydroxypropylcellulose) (HPC)",2 of 5
Cc1cc(Nc2ccc(O)c(CN3CCCC3)c2)cc(Nc2ccc(O)c(CN3CCCC3)c2)n1,survivor count,[3],0 of 6
same,survivor count,[4],0 of 6
same,survivor count,"dose: 400.0 mg/kg/injection, schedule: Q01DX005 (ip), vehicle: saline",0 of 6
O=C(c1cccnc1)C(CCc1ccccn1)c1ccccn1 (stereo not drawn),survivor count,"dose: 400.0 mg/kg/injection, schedule: Q04DX003 (ip), vehicle: saline",4 of 6
Cc1c([C@H](C)[C@@H]2NC[C@@H](C)C[C@H]2O)ccc2c1C[C@H]1[C@H]2CC=C2C[C@@H](O)CC[C@@]21C,survivor count,"dose: 6.0 mg/kg/injection, schedule: Q01DX009 (ip), vehicle: saline with Tween-80",0 of 6 and 3 of 6
same,survivor count,"dose: 12.0 mg/kg/injection, schedule: Q01DX009 (ip), vehicle: saline with Tween-80",0 of 6
CC1CC[P+](c2ccccc2)(c2ccccc2)c2c1ccc1ccccc21 (stereo not drawn),survivor count,"dose: 25.0 mg/kg/injection, schedule: Q04DX002 (ip), vehicle: saline",6 of 6
same,survivor count,[5],2 of 6
same,survivor count,[6],0 of 6
same,survivor count,[7],0 of 6
same,survivor count,[8],0 of 6
Cc1csc2cc(Br)c3ccccc3c12,survivor count,"dose: 400.0 mg/kg/injection, schedule: Q01DX001 (ip), vehicle: saline with Tween-80",6 of 6
CN1CC[C@@H](c2ccccc2)[C@@H](O)C1,survivor count,[2],1 of 6
CN1C(c2ccncc2)=NCC12CCCCC2,survivor count,"dose: 50.0 mg/kg/injection, schedule: Q01DX005 (ip), vehicle: saline",0 of 6
same,survivor count,[5],3 of 6
same,survivor count,[3],0 of 6
same,survivor count,[6],0 of 6
same,survivor count,[4],0 of 6
same,survivor count,[7],0 of 6
same,survivor count,[8],0 of 6
